Binding data for 1 molecule are collected here from doi:10.1101/2021.04.06.21255004.

Amino acid sequences for entries named in this document (tags omitted).
UniProt P69905: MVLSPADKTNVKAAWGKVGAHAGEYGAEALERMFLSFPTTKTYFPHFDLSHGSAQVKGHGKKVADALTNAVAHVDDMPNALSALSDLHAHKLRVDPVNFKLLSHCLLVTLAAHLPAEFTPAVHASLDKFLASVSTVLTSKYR

These are yes or no findings as the source states them, for the method shown. Binding seen in cells or lysates may run through a third protein. Some entries that bind do so weakly or less than the wild type.

For this test, the target named is alpha globin (human (endogenous in omental arteries)) (UniProt P69905). Put plainly: co-IP.

B1: cytochrome B5 reductase 3 (enzyme, UniProt P00387 1-301)
chain: MGAQLSTLGHMVLFPVWFLYSLLMKLFQRSTPAITLESPDIKYPLRLIDREIISHDTRRFRFALPSPQHILGLPVGQHIYLSARIDGNLVVRPYTPISSDDDKGFVDLVIKVYFKDTHPKFPAGGKMSQYLESMQIGDTIEFRGPSGLLVYQGKGKFAIRPDKKSNPIIRTVKSVGMIAGGTGITPMLQVIRAIMKDPDDHTVCHLLFANQTEKDILLRPELEELRNKHSARFKLWYTLDRAPEAWDYGQGFVNEEMIRDHLPPPEEEPLVLMCGPPPMIQYACLPNLDHVGHPTERCFVF
For B1, the binding entry was “binds”.
